From paper PMC11470591
No constants are given. Whether binding was seen depends on the method and setting. Some results given as binding are weak or reduced against the parent protein; the word gives no strength.

Sequences of proteins named here, by UniProt entry; tags and fusion partners are left off. A change or cut given only in a name is not applied to a line headed by its entry.
UniProt P10443: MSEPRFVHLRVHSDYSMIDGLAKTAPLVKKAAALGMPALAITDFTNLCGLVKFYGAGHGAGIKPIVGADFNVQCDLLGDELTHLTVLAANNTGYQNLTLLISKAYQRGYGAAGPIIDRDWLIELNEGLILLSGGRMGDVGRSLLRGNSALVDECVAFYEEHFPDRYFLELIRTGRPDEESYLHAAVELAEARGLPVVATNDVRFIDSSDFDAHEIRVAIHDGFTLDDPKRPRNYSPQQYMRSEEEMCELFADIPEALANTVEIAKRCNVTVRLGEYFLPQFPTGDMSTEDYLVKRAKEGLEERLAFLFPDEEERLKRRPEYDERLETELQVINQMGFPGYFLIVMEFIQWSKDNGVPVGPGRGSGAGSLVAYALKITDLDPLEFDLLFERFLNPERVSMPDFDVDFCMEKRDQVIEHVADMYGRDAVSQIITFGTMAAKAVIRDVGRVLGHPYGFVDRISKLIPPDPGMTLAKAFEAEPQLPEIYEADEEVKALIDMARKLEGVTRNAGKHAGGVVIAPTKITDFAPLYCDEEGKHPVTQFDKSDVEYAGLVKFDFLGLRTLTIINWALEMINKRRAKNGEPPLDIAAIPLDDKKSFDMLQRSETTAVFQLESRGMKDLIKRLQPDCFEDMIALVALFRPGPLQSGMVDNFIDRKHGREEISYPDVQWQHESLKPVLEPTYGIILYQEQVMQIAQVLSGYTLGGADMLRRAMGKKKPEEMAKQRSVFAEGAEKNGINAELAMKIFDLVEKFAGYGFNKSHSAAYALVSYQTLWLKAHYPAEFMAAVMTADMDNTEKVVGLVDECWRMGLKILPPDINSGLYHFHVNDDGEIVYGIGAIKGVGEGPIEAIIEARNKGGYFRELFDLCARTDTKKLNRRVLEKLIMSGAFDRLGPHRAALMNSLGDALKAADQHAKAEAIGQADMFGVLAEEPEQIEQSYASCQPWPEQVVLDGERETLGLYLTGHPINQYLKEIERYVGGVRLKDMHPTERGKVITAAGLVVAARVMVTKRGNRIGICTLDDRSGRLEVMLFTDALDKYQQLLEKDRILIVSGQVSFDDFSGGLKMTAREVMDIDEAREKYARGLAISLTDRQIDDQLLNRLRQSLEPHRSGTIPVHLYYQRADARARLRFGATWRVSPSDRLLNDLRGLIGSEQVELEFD
UniProt P06710: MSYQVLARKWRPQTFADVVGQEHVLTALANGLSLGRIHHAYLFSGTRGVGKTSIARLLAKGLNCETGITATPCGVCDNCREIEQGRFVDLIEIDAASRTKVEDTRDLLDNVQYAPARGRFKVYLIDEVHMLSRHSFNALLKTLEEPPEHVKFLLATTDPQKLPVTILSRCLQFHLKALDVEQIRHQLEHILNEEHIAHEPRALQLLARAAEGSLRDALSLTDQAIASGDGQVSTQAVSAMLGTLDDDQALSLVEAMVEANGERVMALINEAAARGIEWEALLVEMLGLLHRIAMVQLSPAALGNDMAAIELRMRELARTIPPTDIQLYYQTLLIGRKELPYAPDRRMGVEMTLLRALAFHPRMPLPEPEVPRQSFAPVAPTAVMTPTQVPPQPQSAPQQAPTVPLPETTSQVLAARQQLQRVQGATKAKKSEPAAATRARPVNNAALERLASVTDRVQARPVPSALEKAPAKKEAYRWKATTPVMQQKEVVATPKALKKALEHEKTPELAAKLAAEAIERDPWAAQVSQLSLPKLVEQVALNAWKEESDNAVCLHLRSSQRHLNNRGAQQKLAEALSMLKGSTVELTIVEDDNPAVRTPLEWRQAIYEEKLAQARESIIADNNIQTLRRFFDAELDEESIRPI

target: His-tagged α subunit of Pol III (E. coli) (UniProt P10443); assay: pull-down; His-tagged Pol α held on Ni-NTA resin, 1:1 ratio of His-tagged Pol α to τ3-CLC, 4 °C for 30 min, 20 mM sodium phosphate, 0.125 M NaCl, 25 mM imidazole, 1 mM ATP, pH 7.4; 13 washes; elution with 500 mM imidazole; stained SDS gel, band intensity ratio of τ (or γ) to α as fractional saturation; both purified

Substance	binding
τ3(I618X)-CLC (from UniProt P06710 1-617; P28630 1-343; P28631 1-334; P28632 1-137; P28905 1-147) (complex)	no binding
τ3(L635P/D636G)-CLC (from UniProt P06710 1-643; P28630 1-343; P28631 1-334; P28632 1-137; P28905 1-147) (complex)	binds
WT τ3-CLC (τ3δδ'ψχ clamp loader complex) (from UniProt P06710 1-643; P28630 1-343; P28631 1-334; P28632 1-137; P28905 1-147)	binds
τ3(S617P)-CLC (from UniProt P06710 1-643; P28630 1-343; P28631 1-334; P28632 1-137; P28905 1-147) (complex)	binds
